Source: paper PMC7819943, “Rice protein-binding microarrays: a tool to detect cis-acting elements near promoter regions in rice”
Some of the results follow.

biological target: T1, OsSMF1 (Oryza sativa, UniProt Q6ZLB0 1-436); assay: protein-binding microarray (RPBM); PBS, 2% BSA, 51.3 ng/ul salmon testes DNA, 50 uM zinc acetate, 200 nM TF, 25 C, 1 h; high values mean tight binding; conditions: protein: recombinant; tags: N-terminal polyhistidine and DsRed monomer fusion (pET32a); chain copies: 2; label: CyDye5-dUTP incorporated in the synthesized complementary strand; 3' TTTTT single-stranded linker to array surface; dsDNA, one strand shown
T1 sequence: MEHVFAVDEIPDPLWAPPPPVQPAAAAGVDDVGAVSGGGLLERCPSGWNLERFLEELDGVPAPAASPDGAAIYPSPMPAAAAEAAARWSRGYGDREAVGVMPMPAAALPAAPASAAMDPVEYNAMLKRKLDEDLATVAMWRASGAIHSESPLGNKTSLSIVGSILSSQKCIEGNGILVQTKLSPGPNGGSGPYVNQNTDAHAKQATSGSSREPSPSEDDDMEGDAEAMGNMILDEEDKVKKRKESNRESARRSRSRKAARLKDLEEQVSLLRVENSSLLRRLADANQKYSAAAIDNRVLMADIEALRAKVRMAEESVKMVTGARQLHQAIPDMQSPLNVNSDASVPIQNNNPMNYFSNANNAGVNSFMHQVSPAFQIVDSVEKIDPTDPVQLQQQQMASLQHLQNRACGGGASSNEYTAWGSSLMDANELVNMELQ
Summary of the method: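 Binding signal is defined as the fluorescence intensity of each feature in arbitrary units, read on an Axon 4000B scanner. Transcription factors with N-terminal polyhistidine and DsRed fusions came from E. coli BL21-CodonPlus and were purified on Ni–NTA. They were incubated at 200 nM for 1 h at 25 °C on a custom Agilent array that had been made double-stranded with Cy5-dUTP, with 50 µM zinc acetate present, and the array was washed.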

Q: “CCACCCTTTTGTTTGTATATAGTCAGTGAGTATGTTCGATCGGAGTCACCTAGTGCAG” was tested. Which binding signal did it give?
A: The binding signal was 3360 fluorescence intensity (a.u.).

Q: For “GAAACAGATGGATAGGCTGTTGGATCTCGATCGAATGACACGGAGTCACCTAGTGCAG”, which binding signal is on record?
A: Its binding signal is 4470 fluorescence intensity (a.u.).

Q: “GCAGCCGCGGCCACGTCGGCACAAACCGAAGGCGGGAGGACGGAGTCACCTAGTGCAG” was tested. Which binding signal did it give?
A: Its binding signal is 10400 fluorescence intensity (a.u.).

Q: How did the binding signal turn out when “CGTTTGTAGGATATCCACGTGGCGCGTTGAGAGTGTTTATCGGAGTCACCTAGTGCAG” was run?
A: The binding signal was 21900 fluorescence intensity (a.u.).

Q: “GCTAAGATGCCACCTCACACCAGAATTAGATTTCCCCGGGCGGAGTCACCTAGTGCAG” was tested. Which binding signal did it give?
A: The binding signal was 6770 fluorescence intensity (a.u.).

Q: Which binding signal does the source give for “TCCGCGGCTCCGCGCTCTCCCCTCGCCGGTGTCACCGCTCCGGAGTCACCTAGTGCAG” here?
A: Its binding signal is 3390 fluorescence intensity (a.u.).

Q: Which binding signal does the source give for “GTTATTTTAATTTACTTTGGATCACCCTGATTATCGTTTCCGGAGTCACCTAGTGCAG” here?
A: Its binding signal is 3280 fluorescence intensity (a.u.).

Q: For “TCACAGAACTATCTTAAAGTGGTTTGGTAGTTTGTTGCACCGGAGTCACCTAGTGCAG”, which binding signal is on record?
A: The binding signal was 3240 fluorescence intensity (a.u.).

Q: “GCAATAGTTTTGTGTGGTGCAGGCTACGTGGACCCTTGCTCGGAGTCACCTAGTGCAG” was tested. Which binding signal did it give?
A: Its binding signal is 7240 fluorescence intensity (a.u.).

Q: With “GAAAATGCGCAATACTGTTTGGTCAGTACGTGCTATTAATCGGAGTCACCTAGTGCAG” as the sequence, how does the binding signal read?
A: Its binding signal is 3200 fluorescence intensity (a.u.).

Q: Which binding signal does the source give for “TTCATCCCTTGAACTAGTTGTCAGCTACTGACCAGCCTGACGGAGTCACCTAGTGCAG” here?
A: Its binding signal is 4280 fluorescence intensity (a.u.).

Q: How did the binding signal turn out when “CTCCAATGCTACATGCCAAGTCATCCGGACTAAACGCGTCCGGAGTCACCTAGTGCAG” was run?
A: Its binding signal is 4980 fluorescence intensity (a.u.).

Q: With “TGTGAGAGCTCACGCTAATCGGAGGGAATACGATAATGGTCGGAGTCACCTAGTGCAG” as the sequence, how does the binding signal read?
A: Its binding signal is 28700 fluorescence intensity (a.u.).

Q: With “GGCCGGTGCGCCTGTCGATCCACGTGACGCCACCACTGGGCGGAGTCACCTAGTGCAG” as the sequence, how does the binding signal read?
A: Its binding signal is 7620 fluorescence intensity (a.u.).

Q: Which binding signal does the source give for “ATCCATGCTCTTACCGTCATATTTTCCATAATTTCACTGTCGGAGTCACCTAGTGCAG” here?
A: The binding signal was 3310 fluorescence intensity (a.u.).

Q: For “CCATGTAGATCTAACTTTCTATTCACTCGTGGGTTCCGGGCGGAGTCACCTAGTGCAG”, which binding signal is on record?
A: Its binding signal is 3300 fluorescence intensity (a.u.).

Q: How did the binding signal turn out when “TGTGAGCAGTGACGCGCACGCGCTGATGCCCTGCGTCTACCGGAGTCACCTAGTGCAG” was run?
A: Its binding signal is 5510 fluorescence intensity (a.u.).

Q: How did the binding signal turn out when “GCCCGCTCCGCCGCGCGACACCGCGACGCCACCACCCCATCGGAGTCACCTAGTGCAG” was run?
A: Its binding signal is 4040 fluorescence intensity (a.u.).

Q: “ATAGATCCTCTTGCTGCTCCCTCTCTCCTGGATAAGAACCCGGAGTCACCTAGTGCAG” was tested. Which binding signal did it give?
A: The binding signal was 3810 fluorescence intensity (a.u.).

Q: With “GCCGAGCCCTCCACGTCGCCCACTCGTCTCTTCCCCTTCCCGGAGTCACCTAGTGCAG” as the sequence, how does the binding signal read?
A: Its binding signal is 8240 fluorescence intensity (a.u.).

Q: With “GGAAATACGGTGTGAGTGGAATAGACGTGTGTTTCGAAATCGGAGTCACCTAGTGCAG” as the sequence, how does the binding signal read?
A: The binding signal was 3220 fluorescence intensity (a.u.).

Q: How did the binding signal turn out when “TGCTCGTGTCCACTATTTCCATGACGCCAGCGACATGCATCGGAGTCACCTAGTGCAG” was run?
A: Its binding signal is 4730 fluorescence intensity (a.u.).

Q: With “CACTCAAAATCTCTTTCGTGTCCACCTCACCTTGCACCACCGGAGTCACCTAGTGCAG” as the sequence, how does the binding signal read?
A: Its binding signal is 4870 fluorescence intensity (a.u.).

Q: With “TGAAGTGCGCTGCTGTTGACACTTGACAGGTAGCTCGGCCCGGAGTCACCTAGTGCAG” as the sequence, how does the binding signal read?
A: The binding signal was 3180 fluorescence intensity (a.u.).

Q: Which binding signal does the source give for “CCAAGCAGTTGGTGGCTCTGTTACGTACTACATGCGCGCGCGGAGTCACCTAGTGCAG” here?
A: Its binding signal is 3280 fluorescence intensity (a.u.).

Q: How did the binding signal turn out when “TGCTTGATACTACTACGGAGAAAACAACGCATGTTTAAACCGGAGTCACCTAGTGCAG” was run?
A: The binding signal was 29800 fluorescence intensity (a.u.).

Q: How did the binding signal turn out when “TTAGTATGTTAGTATGTGTTTTATCCAACACTACAAAATGCGGAGTCACCTAGTGCAG” was run?
A: Its binding signal is 12900 fluorescence intensity (a.u.).

Q: How did the binding signal turn out when “TTGGCGAATGCTGCCAACGATCCTGACGTTGTTGACCTGACGGAGTCACCTAGTGCAG” was run?
A: Its binding signal is 4900 fluorescence intensity (a.u.).

Q: Which binding signal does the source give for “AAATCACACCCACGCTCGTGCCCATTGGGTCGGGTATCCGCGGAGTCACCTAGTGCAG” here?
A: The binding signal was 3550 fluorescence intensity (a.u.).

Q: Which binding signal does the source give for “GTGTTTAATGATATCGAATGACACCATGTCTAGATAAATCCGGAGTCACCTAGTGCAG” here?
A: Its binding signal is 3230 fluorescence intensity (a.u.).

Q: “GACACGGACAAGTGACGTGGCGATCCCTTGTCCCCACCGACGGAGTCACCTAGTGCAG” was tested. Which binding signal did it give?
A: Its binding signal is 22700 fluorescence intensity (a.u.).

Q: “CCGCACTGCAAAGATCGCGCCACATCAAGATCCAACTCCCCGGAGTCACCTAGTGCAG” was tested. Which binding signal did it give?
A: Its binding signal is 4410 fluorescence intensity (a.u.).

Q: How did the binding signal turn out when “GGGTGTATCTGCAAATATACCACCAGCCCAGCCTGGAGCACGGAGTCACCTAGTGCAG” was run?
A: The binding signal was 3260 fluorescence intensity (a.u.).

Q: For “ACGTTTTGTACTTGGTGTGACTCCTAACTGCCTACTAAGCCGGAGTCACCTAGTGCAG”, which binding signal is on record?
A: The binding signal was 3200 fluorescence intensity (a.u.).

Q: How did the binding signal turn out when “CTTCTCTATCAGGAGCAGAGATGCACGTGGACATGGAGAGCGGAGTCACCTAGTGCAG” was run?
A: Its binding signal is 3290 fluorescence intensity (a.u.).

Q: Which binding signal does the source give for “GAGGAGTGGGCCGGCCAGCACGTCCTGGTGGTGCCCCATGCGGAGTCACCTAGTGCAG” here?
A: The binding signal was 3880 fluorescence intensity (a.u.).

Q: For “ATTGTACACACACTGAAATTGCAATAAACAGAATGTTTCCCGGAGTCACCTAGTGCAG”, which binding signal is on record?
A: The binding signal was 13400 fluorescence intensity (a.u.).

Q: With “CGCACTCACCCCGTCACCCGACGCCGCCGACTCCTCCCTCCGGAGTCACCTAGTGCAG” as the sequence, how does the binding signal read?
A: The binding signal was 4220 fluorescence intensity (a.u.).

Q: How did the binding signal turn out when “ACCGCTCAACGTCATCAACAAATATGTAGCGTCCGATTTCCGGAGTCACCTAGTGCAG” was run?
A: The binding signal was 6400 fluorescence intensity (a.u.).

Q: With “GCTATATGAGCCATCGCGTCCGCCCGTGCACCAGCACCAGCGGAGTCACCTAGTGCAG” as the sequence, how does the binding signal read?
A: Its binding signal is 3190 fluorescence intensity (a.u.).

Q: “ACATGTGAGACAATAGAAAGATAGACCACGTATTACTCACCGGAGTCACCTAGTGCAG” was tested. Which binding signal did it give?
A: The binding signal was 3570 fluorescence intensity (a.u.).

Q: Which binding signal does the source give for “ACTGTAATGGCGCGTACGTGTAATGTTGCGATGAGAGCTCCGGAGTCACCTAGTGCAG” here?
A: The binding signal was 5300 fluorescence intensity (a.u.).
